Source: the supplement of paper PMC8288183
Some of the results follow. Repeats are few or missing, and single values can be far off.

Molecular target: T1, NSUN6 (UniProt Q8TEA1)
T1 sequence: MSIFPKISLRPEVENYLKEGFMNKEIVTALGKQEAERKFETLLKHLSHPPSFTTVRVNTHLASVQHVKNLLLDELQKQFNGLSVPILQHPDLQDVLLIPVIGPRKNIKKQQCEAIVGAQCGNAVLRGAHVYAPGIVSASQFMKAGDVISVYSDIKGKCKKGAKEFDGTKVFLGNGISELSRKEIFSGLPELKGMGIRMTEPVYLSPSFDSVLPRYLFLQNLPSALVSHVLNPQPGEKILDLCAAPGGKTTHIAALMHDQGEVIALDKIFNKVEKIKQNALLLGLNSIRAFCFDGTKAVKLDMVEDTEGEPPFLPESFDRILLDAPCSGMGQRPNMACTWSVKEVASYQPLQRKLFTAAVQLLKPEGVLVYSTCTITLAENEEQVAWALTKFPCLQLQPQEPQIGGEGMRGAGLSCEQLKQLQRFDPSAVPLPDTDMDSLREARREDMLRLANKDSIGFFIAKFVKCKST
Test: m5C methylation level at the target C (C/(C+U) bisulfite reads) (fraction); higher = more methylation by NSUN6; extreme values may be limits of the assay
Conditions: HEK293T (wild-type)
Experimental: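 High-throughput mutagenesis reporter. About 140 bp oligo-pool variants of four natural Type II m5C substrates (substrate #1 chr15:91425541; #2 RAB15 3'UTR chr14:65413377; #3 SULT2A1 5'UTR chr19:48389569; #4 NAAA CDS chr4:76857361) were cloned as 3'UTR elements of psiCHECK-2 luciferase and transfected into wild-type HEK293T cells. Total RNA was taken 48 h later and m5C level was measured by targeted bisulfite sequencing as C/(C+U) reads at the m5C site (one library).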

[1] = parent substrate: substrate #1 (main figure)

Sequence | m5C methylation level at the target C [1] | m5C methylation level at the target C (parent substrate: substrate #2) | m5C methylation level at the target C (parent substrate: substrate #3) | m5C methylation level at the target C (parent substrate: substrate #4)
UCGGAG | 0.00109 | 0.000547 | 0.00199 | 0.000988
CCGAGG | 0 | 0 | 0 | 0
CCGGGA | 0.00183 | 0 | 0.00133 | 0.00375
GCGCAA | 0.000666 | 0.00104 | 0.0038 | 0.0125
CCCGUU | 0 | 0.0046 | 0 | 0
ACCCGA | 0.00219 | 0.000708 | 0.000416 | 0.000855
UCCUAA | 0.000488 | 0.00378 | 0.00128 | 0
UCAGGG | 0 | 0 | 0.00172 | 0
ACCCGU | 0.00219 | 0 | 0 | 0.00207
UCACCA | 0.000927 | 0 | 0.00116 | 0.0108
GCUGGC | 0.00258 | 0.00363 | 0.000364 | 0.00252
UCCAGU | 0 | 0.00122 | 0.00132 | 0.000985
GCUGGA | 0 | 0.00185 | 0.000962 | 0.0014
UCGAUU | 0.00116 | 0 | 0.0014 | 0.00197
UCCUAG | 0 | 0.00178 | 0.000658 | 0.00491
CCCAGC | 0.00305 | 0 | 0 | 0.00061
GCCGCC | 0.0024 | 0.00225 | 0.000426 | 0.00497
ACCAGG | 0.00143 | 0.000866 | 0.00176 | 0.00398
ACUCGA | 0.0254 | 0.00173 | 0.0384 | 0.00725
CCUGUC | 0.000378 | 0 | 0.00176 | 0.00101
UCUAGG | 0.000624 | 0 | 0.0016 | 0.000686
GCGCUC | 0 | 0.00279 | 0.00227 | 0.0112
GCGGGC | 0.0011 | 0 | 0.00127 | 0.000443
CCGCUG | 0.00216 | 0.00245 | 0.00415 | 0.000412

Sequence | m5C methylation level at the target C [1] | m5C methylation level at the target C (parent substrate: substrate #2) | m5C methylation level at the target C (parent substrate: substrate #3) | m5C methylation level at the target C (parent substrate: substrate #4)
CCGAGC | 0.00708 | 0.00272 | 0.00225 | 0
ACGUGC | 0.0095 | 0 | 0.000528 | 0.000763
ACUAUA | 0.0013 | 0.000576 | 0.000576 | 0.000634
ACUGGA | 0.00129 | 0 | 0.00113 | 0.00247
ACGGCC | 0.00176 | 0.000805 | 0 | 0
ACACCU | 0 | 0.00212 | 0 | 0
CCAAAU | 0 | 0 | 0.00385 | 0.000636
GCCAGU | 0.002 | 0.00123 | 0.000395 | 0
GCCAAC | 0.000887 | 0.00199 | 0 | 0.000894
ACAGAA | 0.00194 | 0 | 0.00171 | 0
ACGCUA | 0.00489 | 0.0015 | 0.00131 | 0.00122
GCUGAU | 0.00134 | 0.000962 | 0.00129 | 0.000949
UCAAGA | 0 | 0.00785 | 0 | 0
CCUAUC | 0 | 0.00146 | 0.00151 | 0
GCGGGU | 0.00158 | 0 | 0.00133 | 0
CCAACG | 0 | 0.000925 | 0.00105 | 0
CCGAAG | 0.00482 | 0.00308 | 0 | 0.00176
UCCGAU | 0.000472 | 0.0119 | 0.00269 | 0.00131
CCUUCC | 0.00104 | 0.00178 | 0 | 0.00111
CCCUCC | 0.00216 | 0 | 0 | 0
GCCAAA | 0.00343 | 0 | 0.000685 | 0
GCCCAG | 0.000922 | 0.00228 | 0.000438 | 0.00193
ACAUUG | 0.000697 | 0.00849 | 0 | 0
CCAGAU | 0.00125 | 0.0171 | 0 | 0.00241

Sequence | m5C methylation level at the target C [1] | m5C methylation level at the target C (parent substrate: substrate #2) | m5C methylation level at the target C (parent substrate: substrate #3) | m5C methylation level at the target C (parent substrate: substrate #4)
CCCACU | 0 | 0.0016 | 0.000591 | 0
UCUUAC | 0.000589 | 0 | 0 | 0.000463
GCAAUA | 0.000869 | 0.00142 | 0.00265 | 0.00152
GCGAAG | 0.00247 | 0 | 0.000736 | 0.00256
ACAAAU | 0 | 0 | 0 | 0.00057
CCUGCU | 0.00334 | 0.000935 | 0 | 0.00182
CCAUCU | 0 | 0 | 0.000904 | 0
UCGUAG | 0.0093 | 0.00307 | 0.000406 | 0.00151
GCUCCU | 0.000962 | 0.00248 | 0.0025 | 0.00224
ACAAGA | 0.000428 | 0 | 0.00526 | 0
CCACUU | 0 | 0 | 0.00751 | 0
CCAUUA | 0 | 0.00963 | 0 | 0.000689
CCUUGA | 0 | 0.00217 | 0 | 0.00127
ACUCCG | 0.00144 | 0.00253 | 0.00617 | 0
UCUUUU | 0 | 0.00147 | 0 | 0
GCAUUG | 0 | 0 | 0.00153 | 0
GCGGAC | 0.0035 | 0.00211 | 0.000495 | 0.000467
CCUGUG | 0.000846 | 0 | 0.00228 | 0.00407
UCCAUU | 0.00399 | 0.00519 | 0.00039 | 0.000359
CCUGGG | 0.00225 | 0 | 0.000354 | 0.000734
UCUAAC | 0 | 0.0013 | 0.00102 | 0
GCCAUU | 0.000741 | 0 | 0.00427 | 0
UCGAGU | 0 | 0 | 0.000952 | 0
UCCCUU | 0 | 0.0021 | 0.00151 | 0.00156

Sequence | m5C methylation level at the target C [1] | m5C methylation level at the target C (parent substrate: substrate #2) | m5C methylation level at the target C (parent substrate: substrate #3) | m5C methylation level at the target C (parent substrate: substrate #4)
GCGUUA | 0.000621 | 0.00533 | 0.00322 | 0.00688
GCGCCG | 0.00273 | 0.000781 | 0.00222 | 0.00755
GCAAAC | 0.00263 | 0.000903 | 0.000619 | 0.00984
UCGGGG | 0.00263 | 0 | 0 | 0.00534
ACCUCU | 0 | 0.00265 | 0.000504 | 0.00137
ACAGAG | 0.0106 | 0.00335 | 0 | 0
CCGCCA | 0.00205 | 0 | 0.00105 | 0.00189
GCCCUA | 0 | 0 | 0.00594 | 0.00339
GCCCGG | 0 | 0 | 0.0035 | 0.0027
GCUCGA | 0.00911 | 0 | 0.00132 | 0.000867
UCUCCG | 0.00046 | 0 | 0.00205 | 0.00214
GCAUUU | 0.00159 | 0.0145 | 0.00156 | 0
CCAGAG | 0.00573 | 0 | 0.00229 | 0
ACGUAU | 0 | 0 | 0.00198 | 0.00413
UCGGCG | 0.000866 | 0.00481 | 0.00289 | 0
CCGGUC | 0 | 0.00507 | 0.00983 | 0
GCCGAC | 0.000828 | 0.000733 | 0.00501 | 0.000824
CCGAUG | 0 | 0 | 0.000586 | 0.00371
GCCCCC | 0.00286 | 0.00461 | 0.0011 | 0.00106
ACCCAA | 0.000706 | 0.00248 | 0 | 0
ACCCUA | 0.000595 | 0.0128 | 0.00815 | 0.00296

Complete entries from above.
GCGAAG is listed with m5C methylation level at the target C [1]: 0.00247; m5C methylation level at the target C (parent substrate: substrate #2): 0; m5C methylation level at the target C (parent substrate: substrate #3): 0.000736; m5C methylation level at the target C (parent substrate: substrate #4): 0.00256
GCCCGG is listed with m5C methylation level at the target C [1]: 0; m5C methylation level at the target C (parent substrate: substrate #2): 0; m5C methylation level at the target C (parent substrate: substrate #3): 0.0035; m5C methylation level at the target C (parent substrate: substrate #4): 0.0027
UCUAAC is listed with m5C methylation level at the target C [1]: 0; m5C methylation level at the target C (parent substrate: substrate #2): 0.0013; m5C methylation level at the target C (parent substrate: substrate #3): 0.00102; m5C methylation level at the target C (parent substrate: substrate #4): 0
